What is called EC50 is the midpoint of the concentration-response curve. Higher therefore signals weaker potency. The term EC90 denotes the point of the concentration-response curve where the effect stands at 90%. A lower EC90 goes with an effect from little substance.

These results are taken from publication PMC4482694, “Machine Learning Models and Pathway Genome Data Base for Trypanosoma cruzi Drug Discovery” (PLoS Neglected Tropical Diseases, 2015).

In this experiment the test system is T. cruzi CA-I/72. The experiment can be described thus: Secondary screening (dose-response assay). It is filed as cell-based. Conditions: Trypanosoma cruzi, C2C12, 72 h. The procedure: T. cruzi CA-I/72 trypomastigotes were obtained from C2C12 infected-culture supernatants after 4–7 days of infection. Cultures were maintained at 37°C with 5% CO2. […] Compounds were added at 10 mM in 50 nl per well using a Biomek FX (Beckman Coulter) for a final 10 μM concentration in 50 μl total volume, and 2,500 parasites were added in 10 μl per well. The plate was incubated for 72 hours at 37°C with 5% CO2. After the incubation, the plate was fixed with the addition of 50 μl of 8% paraformaldehyde solution, followed by two successive washing steps using PBS. Finally, a staining solution containing 0.5 μg/ml of 4',6-diamidino-2-phenylindole (DAPI) was added to each well of the plate and incubated for at least 4 hours prior to reading. Images were acquired by an IN Cell Analyzer 2000 (GE Healthcare) and analyzed by IN Cell Analyzer Developer 1.6 software. […] Numbers of host cells and intracellular amastigotes were determined based on host cell and parasite nucleus quantification, providing a measure of growth inhibition during the first 72 h of post-infection treatment compared to untreated controls. […] The host cell viability was assessed based on the total number of cells divided by the average number of cells from untreated controls (0.1% DMSO), being <0.5 considered a cytotoxic compound. This assay was performed in duplicate. […]

`CCCCCCCCCCCCCCCC[n+]1ccccc1` [SC-0011466, cetylpyridinium chloride] registered an EC50 of more than 10 µM and an EC90 of more than 10 µM.
